Taken from: PubChem BioAssay AID686943 (Drosophila RNAi Screening Center, 2013)
Purpose: 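Search across the genome for regulators of signalling from receptor tyrosine kinase to ERK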 (primary screen). System: Drosophila S2R+ haemocyte-like cells expressing YFP-tagged ERK (Rolled). Reagent: long dsRNA against Drosophila genes. Conditions: insulin stimulation versus unstimulated cells; dose and duration not given. Measured: 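Per-plate z-scores of phospho-ERK immunostaining normalised to YFP-tagged ERK, measured with and without insulin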. Scale: replicate 1, z-score of dpERK with insulin: higher = more active ERK per ERK-YFP after insulin.
The deposit covers about 23,000 reagents; below is a random part of those with a known target gene and a result. 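Extra replicates exist only for a retested subset of genes; insulin dose and duration not given; both raised and lowered dpERK matter.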 Reagents against one gene are numbered here. Not all columns of the deposit are shown. The record does not give: the amount of reagent, the time to read-out.

cdm | replicate 1, z-score of dpERK with insulin: 1.53
Jhbp16 | replicate 1, z-score of dpERK with insulin: 0.34
CG11865 | replicate 1, z-score of dpERK with insulin: -0.3
CG42714 | replicate 1, z-score of dpERK with insulin: -0.8
CG30076 | replicate 1, z-score of dpERK with insulin: -0.3
CG5509 | replicate 1, z-score of dpERK with insulin: 0.49
sqh | replicate 1, z-score of dpERK with insulin: 0.06
CG4630 | replicate 1, z-score of dpERK with insulin: 0.66
CG13492 | replicate 1, z-score of dpERK with insulin: 0.47
CG34007 | replicate 1, z-score of dpERK with insulin: -0.36
CG14965 | replicate 1, z-score of dpERK with insulin: 0.15
Teh2 | replicate 1, z-score of dpERK with insulin: -0.25
CG5815 | replicate 1, z-score of dpERK with insulin: 1.11
Wdr33 | replicate 1, z-score of dpERK with insulin: 2.79
CG13699 | replicate 1, z-score of dpERK with insulin: -1.59
CG6432 | replicate 1, z-score of dpERK with insulin: 0.28
l(2)34Fd | replicate 1, z-score of dpERK with insulin: 0.4
CG6770 | replicate 1, z-score of dpERK with insulin: -5.6
Ppt1 | replicate 1, z-score of dpERK with insulin: -0.12
Ir52a | replicate 1, z-score of dpERK with insulin: 0.05
CG11300 | replicate 1, z-score of dpERK with insulin: -0.21
Su(P) | replicate 1, z-score of dpERK with insulin: -1.11
CG8252 | replicate 1, z-score of dpERK with insulin: -0.14
Obp28a | replicate 1, z-score of dpERK with insulin: -1.63
Cdc6 | replicate 1, z-score of dpERK with insulin: -0.12
CG13082 | replicate 1, z-score of dpERK with insulin: 1.09
fusl | replicate 1, z-score of dpERK with insulin: 0.31
Damm | replicate 1, z-score of dpERK with insulin: 0.02
CG13071 | replicate 1, z-score of dpERK with insulin: -0.18
CG3894 #1 | replicate 1, z-score of dpERK with insulin: -0.01
CG3894 #2 | replicate 1, z-score of dpERK with insulin: 0.34
CG3894 #3 | replicate 1, z-score of dpERK with insulin: -0.97

Records above whose gene name starts with S or s (2):
sqh | replicate 1, z-score of dpERK with insulin: 0.06
Su(P) | replicate 1, z-score of dpERK with insulin: -1.11
